In all, about 52,000 sequences went through this assay and about 210 (0.4%) were called active.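 The calls were made as follows: active = gene whose silencing raises cell survival under the drug, median off-target-corrected z-score across its silencing RNAs 2 or more; inactive = the rest.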 This is one part of the list.

The assay can be described thus: Resistance to Poly (ADP-Ribose) Polymerase inhibitor: Gene Identification via Genome-wide siRNA Screen. Conditions: mouse BRCA2 R2336H ES cells, olaparib, CellTiter-Glo viability; active compounds read high. The method in brief:
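Mouse BRCA2 R2336H ES cells were reverse-transfected with siRNA (20 nM final), treated at 48 h with 500 nM olaparib, and read by CellTiter-Glo after 72 h. Scores: MAD-based z per siRNA, median per gene, seed off-target correction.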
As for GCCAACCUGAAUAGACCUCTT against Glis3, the z-score is inactive: 0.969. Turning to GGUGAUUGACAGAUUCUGATT against Nr4a1, the z-score is inactive: 1.02. As to GCUUCCUCUACGACUACUATT against Tfcp2l4, the z-score is inactive: -2.26. Take “GGAAGGAUGGAGCAAAGCCTT against 2310050B20Rik”: the z-score was inactive: 0.666. The result for “GGUCAAGACUGAACUGUGATT against C630049M13” reads inactive: 2.02; that for CGGACAUCAUUGUUUUAAGTT against Rbbp7, inactive: -0.157; that for GCGCAGAGCAAAAUCGAAUTT against Gja1, inactive: 0.386. The result for CGAUUCUUUACUAAAUUGGTT against Chek1 reads inactive: -0.213; that for GGGUCUAGAGACAUGUGGCTT against Saa3, inactive: -0.00552; that for “GGGAUUUCUGGAGAAAAUGTT against 2010005H15Rik”, inactive: -2.86. In the case of GCAGUCAGGAGUUGUUCAGTT against Btg1 it was inactive: -0.89; in that of GGAAAAUCAGAUUUCAGAGTT against Lrrn1, inactive: 1.75; in that of GCAAAUGACCUUCUCACACTT against Gga2, inactive: -0.0598.

Take “GCAGCAUAUGAACACAAUATT against A630007B06Rik”: the z-score is inactive: 1.51.

With “CCUCAAUUUAGGCACUAAUTT against 2010005J08Rik”, the z-score is inactive: 1.96. Regarding GGGAGUGGCUCCUCAGAAATT against AW549877, the z-score is inactive: 0.485.

On to GGAGGAUGCUGAAAUUAUUTT against Atp6v0a1, for which the z-score is inactive: -1.66. In the case of GCACUCGGCCAUAAAGUGUTT against Phkb it was inactive: 2.58; in that of GGGACCAAGGGAUAAACCATT against Atxn7l1, inactive: -1.01. The result for GCCUGAUGGUGCUAAGACUTT against Olfr854 reads inactive: -0.787. In the case of GCGUAUUUGAGAAUUUAGATT against Atrx, the z-score was inactive: 0.159.

In the case of GGACUGUACUAUGGCUCUCTT against Nt5m, the z-score was inactive: 1.32. Turning to GGCAUUUCCGACAGAGAUGTT against Cpne4, the z-score is inactive: 0.597.

With GGGAAUACAUUCAUUAUCATT against Sema3c, the z-score is inactive: 0.988.

For GGCAUCUGUUAUUGAAGUGTT against Vit, the z-score is inactive: 0.771. In the case of UAGUGAGCAAGGAAUUGGATT against LOC435023 it was inactive: 0.195; in that of “GGCUGAAUGUCGCUUAGAGTT against 9030612E09Rik”, inactive: 0.115; in that of UGUUCCUAGGUCAGCUACUTT against Olfr1200, inactive: 1.81. The result for GGGACCUCUACAGAGAUGUTT against Zfp113 reads inactive: -0.326; that for CCAAUCCUGUGAGAGCAUGTT against Tectb, inactive: 0.888. In the case of GUGAUUGGGAACCUGUUUATT against Paqr6 it was inactive: 0.115; in that of GGUUAGAGAUCUUUUGAAATT against St14, inactive: 0.921; in that of GGUUAAAAGCCAUGUGUAATT against Pggt1b, inactive: -0.128. Consider GGUGGAUGAGGACACUAUCTT against Hs6st1, for which the z-score is inactive: -0.22.

GGAGGUGAACAAUAUCUUCTT against Klf5: the z-score was inactive: 1.19. In the case of “GGAUGUUUGGACAUCAUUUTT against 2610002M06Rik” it was inactive: 1.82; in that of “GGAGACCUGUGACUCCUUATT against 4932415M13”, inactive: 0.159. In the case of CCCGUCUUACUGCUCUUCUTT against Slc22a13 it was inactive: 1.55. The result for GCUUCUCAAAUAAACAGCATT against Hexa reads inactive: 1.01; that for “GCCUGCUUAUAUAGGGUGUTT against 2400003B06Rik”, inactive: -0.947; that for UACAACCCACCUUUUAAGUTT against Tusc1, inactive: -1.76. Regarding CCAGGUAAACAUUGCUACUTT against Mpdz, the z-score is inactive: 0.981. Turning to UGGUUGUGAUCAACAGAAUTT against LOC380997, the z-score was inactive: 0.284. The result for “GGUCAGGUAGGGAUAUACATT against 0610009O20Rik” reads inactive: -1.93.

Consider GGCCAUAACACAAAUGUAGTT against Prpf4, for which the z-score is inactive: 0.403. In the case of GGUAUGUCGCCAUCUGCUUTT against Olfr1342 it was inactive: -0.852; in that of GGCCUAGGGAAAGCUAUGGTT against Cml3, inactive: -0.2. In the case of “CCCAAGUUUGUAAAAGAAUTT against 1110019C08Rik” it was inactive: 0.394. In the case of GCAGGGAUCUGGAUUUAAUTT against Arf5 it was inactive: 0.29. Take “GCAGUCAUGCCCGAUCUUGTT against A830006N08Rik”: the z-score is inactive: -1.38. Take GGAACAAAAGGUGAUCGUGTT against Col25a1: the z-score is inactive: 0.717. In the case of CGUCUGCCACCUAUUUGAGTT against Olfr122 it was inactive: -0.715; in that of GGGAGCUAUGGAUUUGCUGTT against Tcea2, inactive: 0.614.

As for GGCAGUAGUGUUAACGGUGTT against Chrnb2, the z-score was active: 2.38. The result for GCCAUCCUGAUAUCAGGCATT against Tas2r138 reads inactive: 0.496.

As to “GGACAUUCGUGGUUCCAUCTT against 4833412N02Rik”, the z-score is inactive: 0.546.

On to GGAGAAACAUCAAUUGCACTT against Thbs2, for which the z-score is inactive: 0.387. In the case of GGAAAUGACGAGAAGAAAGTT against Mapt it was inactive: -1.01; in that of “GGCAGCAACUUGAUAAUAATT against 0610011I04Rik”, inactive: -1.68; in that of GCAUUUAAUGCCAAACCUGTT against Kirrel1, inactive: 0.255.

On to GGAUUGGCAACCUCCAUUUTT against Rbbp2, for which the z-score is inactive: 2.67. The result for GGAACACUAUCUCACCUUUTT against Psd2 reads inactive: 0.516; that for GCAUGAAUAUUCCUCGUGATT against LOC433501, inactive: 2.08; that for GCCAUGAAACUUCAUGCUGTT against Spink4, inactive: -0.497. In the case of CUUUCUUGCCGUAUUUUACTT against Olfr1287 it was inactive: 0.801; in that of GGAGAAACAGAAAGGUCACTT against Tmepai, inactive: 0.695. The result for GGAGCUGAAUGACCGCUUUTT against Vim reads inactive: -0.25. For GAUUAUCCAUUGCCCGAUGTT against Sprrl9, the z-score is inactive: 1.7. The result for GGACGACUGAGUCUUUGAATT against Il20 reads inactive: 0.163. In the case of GGCAGUCAAGGCUAUGGACTT against Taf15 it was inactive: 2.41; in that of “CGGCCUAACAGCCAGACUUTT against 1700013G24Rik”, inactive: -0.67; in that of GGCCAAUUCACCAACGGCATT against Jph2, inactive: 0.2. The result for “GGAAGAGGCCAGCUAUAACTT against B930007L02Rik” reads inactive: -2.57; that for GGGACAUGAGCCAUUCAUCTT against Mlr2, inactive: -0.963. Regarding GGAACAAGCCCAAGAAGAATT against Mad, the z-score is inactive: -1.37. For GGUGGCAGUCACCAUUCUUTT against Il17rd, the z-score was inactive: -1.64. Consider GGAUCUUCUGGAUAGAAUGTT against Prc1, for which the z-score was inactive: 0.0886. For GGAAGACUUCACUAAGAUCTT against Dpysl5, the z-score is inactive: 0.327. The result for GGGUUUCUAUAUAUUUAGGTT against Cdca7 reads inactive: -0.664; that for GCCCGAAAAAAACGUAGGATT against Map3k14, inactive: -0.326; that for “GGAAAGCUUGAAAAUGUUCTT against 4932438A13Rik”, inactive: -0.231. GGCUCUGUGAUGGUCUUACTT against Olfr446: the z-score is inactive: -2.42.

“CCAGCUAAAAAGAUGGUAGTT against 1110037N09Rik”: the z-score is inactive: 0.728. In the case of GCAGUACCCUUACAAUAAUTT against Ndufb8 it was inactive: -0.36. The result for CCUGUAAGAUGUUUCGGCCTT against Zdhhc18 reads inactive: 0.825; that for “GGAUCACAAGCUGGUGUUCTT against 5033413H12Rik”, inactive: 0.606.

CCCGUGGUCCUACAUUGUUTT against Cdon: the z-score is inactive: 0.357. In the case of GGAUGUAAAGAUUAGCGUGTT against Dgcr8 it was inactive: -0.0062.

CCAUCCAGUAAGGUUAUUCTT against Npy5r: the z-score was inactive: 0.651.

As for “GGAAUUAUCUUCAUCCCUGTT against D230019K24Rik”, the z-score was inactive: 0.492. As to GGAGGAGGAGACCAUCAUGTT against Neud4, the z-score was inactive: -0.279. Turning to CGUUGUGCAAUUUAUACUATT against Zfp84, the z-score is inactive: 0.063. In the case of “GGGAUUACUUGUAUCGGGATT against 1700006D24Rik” it was inactive: 0.302. For “GGCCAAAGGGCAAAGUGAUTT against D3Bwg0562e”, the z-score is inactive: 0.678.

On to GGAGCAACUACAAACAUCUTT against Acas2, for which the z-score was inactive: 0.504. In the case of GCAGGUGAAGAGUGAUUUUTT against Il10 it was inactive: 1.01. On to GGAUUCAGUGGCUAUCAACTT against Olfr770, for which the z-score is inactive: 1.12. For “GGAUGAAGAACUCAGAGUGTT against 2310009N05Rik”, the z-score was inactive: 0.143. In the case of CCCAUAGCUAAUGAACCAATT against Sntg2, the z-score is inactive: -1.9. The result for GCUCAACGGUUUACCCUCATT against Ppp5c reads inactive: -1.39; that for GGACGGCAGAAGUACAAACTT against Esrra, inactive: 0.435; that for “CCUGUAAUGGGAAAUGGCCTT against D7Ertd680e”, inactive: 1.12. The result for GGACCAAGGAAUAUUUCCCTT against Serpinb9b reads inactive: 0.752. The result for GGUCAUUGGUAGGUCCACUTT against Rusc2 reads inactive: 0.741.

(Values after PubChem BioAssay AID1347423 (Functional Genomics Laboratory (NCATS/FGL), 2020).)
